Results as given in the supplement of paper PMC11732987, “Enantioselective OTUD7B fragment discovery through chemoproteomics screening and high-throughput optimisation” (Communications Chemistry, 2025).
The list shows a part of the results. The data scatter; read single values as rough.

By UniProt entry, the sequences of proteins in these tests, tags left out. Where a name states a change or a piece, a line headed by the entry shows the natural chain unless it says otherwise. Residues count along the entry.
UniProt Q8IX90, 276-295: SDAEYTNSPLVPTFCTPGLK
UniProt P00441, whole entry, looked up: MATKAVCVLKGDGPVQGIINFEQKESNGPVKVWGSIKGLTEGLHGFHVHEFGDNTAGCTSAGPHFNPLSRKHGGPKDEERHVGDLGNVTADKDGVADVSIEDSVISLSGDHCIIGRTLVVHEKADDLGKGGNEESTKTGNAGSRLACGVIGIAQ
UniProt Q96Q15: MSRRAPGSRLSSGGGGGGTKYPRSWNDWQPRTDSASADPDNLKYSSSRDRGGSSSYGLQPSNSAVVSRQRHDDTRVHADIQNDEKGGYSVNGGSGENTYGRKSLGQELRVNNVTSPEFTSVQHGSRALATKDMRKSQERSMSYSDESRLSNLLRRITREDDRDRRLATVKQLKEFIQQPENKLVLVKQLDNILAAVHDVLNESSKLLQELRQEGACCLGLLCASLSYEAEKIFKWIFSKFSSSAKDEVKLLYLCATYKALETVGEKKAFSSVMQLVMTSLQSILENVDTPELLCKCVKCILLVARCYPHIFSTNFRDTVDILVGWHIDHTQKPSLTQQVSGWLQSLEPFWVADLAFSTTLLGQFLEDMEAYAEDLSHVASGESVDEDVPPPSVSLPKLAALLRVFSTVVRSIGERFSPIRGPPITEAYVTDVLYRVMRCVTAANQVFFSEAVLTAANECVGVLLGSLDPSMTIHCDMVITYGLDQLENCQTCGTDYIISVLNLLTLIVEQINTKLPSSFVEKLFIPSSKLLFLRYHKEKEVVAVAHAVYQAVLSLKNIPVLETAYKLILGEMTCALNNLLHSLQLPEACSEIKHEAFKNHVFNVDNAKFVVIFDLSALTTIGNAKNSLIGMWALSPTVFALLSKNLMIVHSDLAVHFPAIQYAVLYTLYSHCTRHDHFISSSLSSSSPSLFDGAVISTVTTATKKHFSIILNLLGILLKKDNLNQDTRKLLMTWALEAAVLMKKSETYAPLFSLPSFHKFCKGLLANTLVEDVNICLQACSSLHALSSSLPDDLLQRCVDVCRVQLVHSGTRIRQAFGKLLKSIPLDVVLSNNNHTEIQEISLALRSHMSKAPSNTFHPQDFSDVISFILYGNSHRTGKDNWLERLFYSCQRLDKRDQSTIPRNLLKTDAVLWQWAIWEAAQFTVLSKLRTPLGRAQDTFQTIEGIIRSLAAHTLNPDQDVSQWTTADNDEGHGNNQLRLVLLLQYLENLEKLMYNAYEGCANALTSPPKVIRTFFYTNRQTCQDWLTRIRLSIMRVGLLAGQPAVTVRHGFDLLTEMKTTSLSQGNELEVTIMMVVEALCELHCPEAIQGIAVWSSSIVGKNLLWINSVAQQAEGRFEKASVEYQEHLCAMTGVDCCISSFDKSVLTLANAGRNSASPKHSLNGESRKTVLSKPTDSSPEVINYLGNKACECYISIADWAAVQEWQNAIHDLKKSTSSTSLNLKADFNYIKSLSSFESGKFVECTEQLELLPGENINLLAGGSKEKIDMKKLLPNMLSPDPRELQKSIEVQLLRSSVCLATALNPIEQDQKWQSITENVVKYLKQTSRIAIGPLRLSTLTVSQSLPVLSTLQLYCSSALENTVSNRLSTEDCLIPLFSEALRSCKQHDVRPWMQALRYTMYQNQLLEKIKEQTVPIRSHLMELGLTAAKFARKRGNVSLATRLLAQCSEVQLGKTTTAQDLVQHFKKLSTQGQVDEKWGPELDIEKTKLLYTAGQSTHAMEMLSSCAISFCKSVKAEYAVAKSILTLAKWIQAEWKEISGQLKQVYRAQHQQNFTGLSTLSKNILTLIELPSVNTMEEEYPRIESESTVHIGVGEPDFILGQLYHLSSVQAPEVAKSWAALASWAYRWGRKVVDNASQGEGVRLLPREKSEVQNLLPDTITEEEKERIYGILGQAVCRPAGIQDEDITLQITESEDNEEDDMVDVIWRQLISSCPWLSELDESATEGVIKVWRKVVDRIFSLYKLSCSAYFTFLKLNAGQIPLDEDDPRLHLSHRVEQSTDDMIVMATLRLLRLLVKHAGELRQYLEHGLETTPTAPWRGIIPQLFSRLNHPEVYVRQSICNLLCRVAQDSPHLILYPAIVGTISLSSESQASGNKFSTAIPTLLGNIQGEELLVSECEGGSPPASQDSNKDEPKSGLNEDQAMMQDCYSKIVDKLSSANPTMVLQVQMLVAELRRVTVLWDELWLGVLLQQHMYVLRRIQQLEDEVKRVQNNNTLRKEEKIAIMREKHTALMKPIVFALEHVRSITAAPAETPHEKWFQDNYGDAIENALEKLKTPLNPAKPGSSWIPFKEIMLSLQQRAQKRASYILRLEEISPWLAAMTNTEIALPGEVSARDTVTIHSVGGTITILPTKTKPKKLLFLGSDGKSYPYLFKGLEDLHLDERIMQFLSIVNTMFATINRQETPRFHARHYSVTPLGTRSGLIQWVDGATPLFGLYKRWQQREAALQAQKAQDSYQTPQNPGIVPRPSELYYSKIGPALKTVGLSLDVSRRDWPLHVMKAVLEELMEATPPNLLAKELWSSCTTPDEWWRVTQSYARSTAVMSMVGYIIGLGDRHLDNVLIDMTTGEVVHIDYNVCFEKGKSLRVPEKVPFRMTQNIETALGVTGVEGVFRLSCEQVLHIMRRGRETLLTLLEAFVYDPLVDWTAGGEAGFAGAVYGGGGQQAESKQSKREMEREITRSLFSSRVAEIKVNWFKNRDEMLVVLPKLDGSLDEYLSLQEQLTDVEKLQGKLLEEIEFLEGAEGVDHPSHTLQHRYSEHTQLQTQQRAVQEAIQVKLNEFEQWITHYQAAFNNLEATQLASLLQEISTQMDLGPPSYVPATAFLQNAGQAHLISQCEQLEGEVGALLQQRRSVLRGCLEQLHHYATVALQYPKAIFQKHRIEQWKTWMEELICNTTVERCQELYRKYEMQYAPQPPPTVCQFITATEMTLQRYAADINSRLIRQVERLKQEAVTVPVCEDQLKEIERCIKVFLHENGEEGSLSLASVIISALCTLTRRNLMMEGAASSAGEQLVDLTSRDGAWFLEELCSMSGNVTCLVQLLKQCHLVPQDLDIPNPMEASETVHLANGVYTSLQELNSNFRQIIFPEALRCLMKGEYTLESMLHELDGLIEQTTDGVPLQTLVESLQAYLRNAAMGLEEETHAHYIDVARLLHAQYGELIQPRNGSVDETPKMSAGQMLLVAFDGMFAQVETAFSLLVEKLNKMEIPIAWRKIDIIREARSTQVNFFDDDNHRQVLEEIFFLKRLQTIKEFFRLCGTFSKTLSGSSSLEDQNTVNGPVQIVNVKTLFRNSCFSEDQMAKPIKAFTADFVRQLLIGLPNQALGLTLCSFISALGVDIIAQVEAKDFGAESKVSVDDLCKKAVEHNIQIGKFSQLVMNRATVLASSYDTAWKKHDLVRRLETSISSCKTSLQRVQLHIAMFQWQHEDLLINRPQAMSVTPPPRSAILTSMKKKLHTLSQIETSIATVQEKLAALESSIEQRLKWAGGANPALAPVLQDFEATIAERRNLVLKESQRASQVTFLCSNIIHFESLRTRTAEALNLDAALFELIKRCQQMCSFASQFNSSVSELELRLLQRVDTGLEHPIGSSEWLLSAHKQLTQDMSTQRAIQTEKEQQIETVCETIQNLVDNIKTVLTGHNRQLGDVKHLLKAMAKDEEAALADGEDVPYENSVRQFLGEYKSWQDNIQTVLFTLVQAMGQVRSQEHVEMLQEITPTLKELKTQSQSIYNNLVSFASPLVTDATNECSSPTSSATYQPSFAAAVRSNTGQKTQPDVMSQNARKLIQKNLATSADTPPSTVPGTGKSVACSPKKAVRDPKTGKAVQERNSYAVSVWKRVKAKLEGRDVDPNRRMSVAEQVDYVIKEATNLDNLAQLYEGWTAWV
UniProt O95347, whole entry, looked up: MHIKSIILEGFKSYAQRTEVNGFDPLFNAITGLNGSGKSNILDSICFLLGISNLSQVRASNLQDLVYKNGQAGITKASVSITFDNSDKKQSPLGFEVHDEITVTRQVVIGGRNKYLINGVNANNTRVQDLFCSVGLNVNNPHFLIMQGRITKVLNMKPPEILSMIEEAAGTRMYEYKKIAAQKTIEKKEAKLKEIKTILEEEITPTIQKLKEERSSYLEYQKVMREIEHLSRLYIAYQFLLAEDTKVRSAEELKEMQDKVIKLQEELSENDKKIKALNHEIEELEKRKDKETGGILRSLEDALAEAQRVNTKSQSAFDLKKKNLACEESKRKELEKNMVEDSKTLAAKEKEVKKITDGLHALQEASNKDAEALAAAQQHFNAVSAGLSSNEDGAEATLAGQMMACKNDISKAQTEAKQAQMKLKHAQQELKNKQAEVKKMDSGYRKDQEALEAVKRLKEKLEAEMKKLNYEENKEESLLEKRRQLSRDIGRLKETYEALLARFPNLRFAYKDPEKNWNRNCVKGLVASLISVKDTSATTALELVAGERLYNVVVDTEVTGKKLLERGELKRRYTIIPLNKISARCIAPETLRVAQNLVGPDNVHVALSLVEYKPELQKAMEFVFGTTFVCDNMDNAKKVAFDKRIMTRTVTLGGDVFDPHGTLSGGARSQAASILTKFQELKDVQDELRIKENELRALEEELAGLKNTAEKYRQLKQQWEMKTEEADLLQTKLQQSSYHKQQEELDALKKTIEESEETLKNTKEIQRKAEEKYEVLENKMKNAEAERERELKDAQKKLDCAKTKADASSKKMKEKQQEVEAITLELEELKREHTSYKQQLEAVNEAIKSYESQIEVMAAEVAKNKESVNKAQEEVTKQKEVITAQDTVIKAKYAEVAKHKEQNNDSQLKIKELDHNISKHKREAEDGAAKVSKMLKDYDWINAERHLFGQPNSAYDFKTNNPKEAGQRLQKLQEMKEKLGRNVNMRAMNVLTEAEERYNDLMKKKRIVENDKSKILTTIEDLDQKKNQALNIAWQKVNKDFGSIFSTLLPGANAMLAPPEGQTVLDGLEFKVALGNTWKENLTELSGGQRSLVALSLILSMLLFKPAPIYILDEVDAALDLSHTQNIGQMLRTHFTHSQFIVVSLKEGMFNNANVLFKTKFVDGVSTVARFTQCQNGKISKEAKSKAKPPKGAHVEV
UniProt Q13425: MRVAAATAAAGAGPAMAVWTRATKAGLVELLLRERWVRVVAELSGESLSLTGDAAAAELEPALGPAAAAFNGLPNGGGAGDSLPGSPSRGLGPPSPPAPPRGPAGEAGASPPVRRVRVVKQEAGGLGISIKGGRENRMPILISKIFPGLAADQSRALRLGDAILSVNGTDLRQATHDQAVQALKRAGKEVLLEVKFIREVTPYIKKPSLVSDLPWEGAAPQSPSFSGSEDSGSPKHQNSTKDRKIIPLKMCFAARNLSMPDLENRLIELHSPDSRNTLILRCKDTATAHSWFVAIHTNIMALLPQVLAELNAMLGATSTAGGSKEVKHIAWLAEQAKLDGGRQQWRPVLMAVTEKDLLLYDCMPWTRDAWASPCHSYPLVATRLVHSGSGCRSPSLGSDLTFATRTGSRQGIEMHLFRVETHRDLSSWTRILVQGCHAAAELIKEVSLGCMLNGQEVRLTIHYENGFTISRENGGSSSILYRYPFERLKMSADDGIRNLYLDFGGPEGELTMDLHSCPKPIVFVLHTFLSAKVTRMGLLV
UniProt Q9UPR3: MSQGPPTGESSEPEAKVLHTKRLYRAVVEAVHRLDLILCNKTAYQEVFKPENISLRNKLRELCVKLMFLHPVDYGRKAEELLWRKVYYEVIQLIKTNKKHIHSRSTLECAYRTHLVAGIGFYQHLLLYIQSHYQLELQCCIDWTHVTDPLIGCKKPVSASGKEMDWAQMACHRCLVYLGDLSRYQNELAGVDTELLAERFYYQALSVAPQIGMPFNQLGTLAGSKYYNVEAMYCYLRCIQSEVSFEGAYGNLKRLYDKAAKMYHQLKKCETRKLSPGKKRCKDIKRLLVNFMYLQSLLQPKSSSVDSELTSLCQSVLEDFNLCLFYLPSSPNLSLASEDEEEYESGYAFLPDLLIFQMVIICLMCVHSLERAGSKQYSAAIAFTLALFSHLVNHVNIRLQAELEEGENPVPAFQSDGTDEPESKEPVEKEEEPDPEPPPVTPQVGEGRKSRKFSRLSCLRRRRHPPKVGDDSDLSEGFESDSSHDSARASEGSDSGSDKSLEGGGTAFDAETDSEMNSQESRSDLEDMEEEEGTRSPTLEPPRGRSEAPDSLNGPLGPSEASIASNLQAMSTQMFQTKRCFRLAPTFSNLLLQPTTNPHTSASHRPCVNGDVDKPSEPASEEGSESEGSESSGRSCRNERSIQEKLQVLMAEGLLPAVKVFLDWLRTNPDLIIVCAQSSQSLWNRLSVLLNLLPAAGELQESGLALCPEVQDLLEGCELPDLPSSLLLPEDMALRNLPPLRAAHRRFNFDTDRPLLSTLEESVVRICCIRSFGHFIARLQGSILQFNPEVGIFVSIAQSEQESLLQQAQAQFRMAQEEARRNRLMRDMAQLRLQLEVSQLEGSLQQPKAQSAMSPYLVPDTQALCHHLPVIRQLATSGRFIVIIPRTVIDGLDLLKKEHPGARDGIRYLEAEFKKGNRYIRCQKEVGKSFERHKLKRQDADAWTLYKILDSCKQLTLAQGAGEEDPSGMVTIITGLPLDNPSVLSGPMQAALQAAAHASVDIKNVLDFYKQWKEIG

compound: ClCC(=O)N[C@@H]1CCCc2ccccc12; test: log2 mean competition ratio of IA-DTB cysteine labelling (DMSO/compound) (log2 ratio); higher = stronger cysteine engagement by compound; details: 50 µM; treatment time: 4 h; cell line lysate: HEK293T
Experimental: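 IA-DTB competitive cysteine chemoproteomics in HEK293T RIPA lysate. Lysates were treated with compound 29 or 30 at 50 or 200 µM for 4 h, then IA-DTB (500 µM, 1 h), trypsin-digested, NeutrAvidin-enriched and analysed by diaPASEF. Competition ratio = intensity DMSO / intensity compound (n=4 treated, n=64 DMSO); binding: mean log2 CR ≥ 1 and p ≤ 0.05 plus QC filters. Target is the cysteine site.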

Row | Target | log2 mean competition ratio
1 | SLAIN1 C313 (UniProt Q8ND83) | 0.155
2 | SKA3 C290 (UniProt Q8IX90) | -0.0314
3 | SOD1 C147 (UniProt P00441) | 0.0863
4 | SLC35F6 C36 (UniProt Q8N357) | 0.0176
5 | SMG1 C1929 (UniProt Q96Q15) | -0.0959
6 | SMCHD1 C897 (UniProt A6NHR9) | -0.0755
7 | SKP2 C423 (UniProt Q13309) | -0.153
8 | SNAPC3 C11 (UniProt Q92966) | -0.0953
9 | SNX4 C342 (UniProt O95219) | -0.174
10 | SMC2 C1174 (UniProt O95347) | 0.0976
11 | SPART C562 (UniProt Q8N0X7) | -0.0703
12 | SLC47A1 C466 | 0.273
13 | SMG8 C72 (UniProt Q8ND04) | -0.0137
14 | SLC25A6 C160 (UniProt P12236) | -0.0175
15 | SNTB2 C391 (UniProt Q13425) | 0.0524
16 | SMARCA2 C91 (UniProt P51531) | -0.0625
17 | SLC2A4RG C322 | -0.182
18 | SLC6A11 C28 | -0.163
19 | SLC27A3 C364 | -0.193
20 | SMPD2 C304 (UniProt O60906) | 0.205

same assay, conditions: 200 µM; treatment time: 4 h; cell line lysate: HEK293T

Row | Target | log2 mean competition ratio
21 | SLAIN1 C313 (UniProt Q8ND83) | -0.024
22 | SMG5 C174 (UniProt Q9UPR3) | -0.382
23 | SKA3 C290 (UniProt Q8IX90) | 0.137
24 | SOD1 C147 (UniProt P00441) | -0.154
25 | SLC35F6 C36 (UniProt Q8N357) | -0.149
26 | SMG1 C1929 (UniProt Q96Q15) | -0.386
27 | SMCHD1 C897 (UniProt A6NHR9) | -0.00318
28 | SKP2 C423 (UniProt Q13309) | 0.0249
29 | SNAPC3 C11 (UniProt Q92966) | 0.233
30 | SNX4 C342 (UniProt O95219) | -0.277
31 | SMC2 C1174 (UniProt O95347) | 0.0574
32 | SPART C562 (UniProt Q8N0X7) | -0.246
33 | SLC47A1 C466 | 0.133
34 | SMG8 C72 (UniProt Q8ND04) | -0.16
35 | SLC25A6 C160 (UniProt P12236) | -0.16
36 | SNTB2 C391 (UniProt Q13425) | 0.312
37 | SMARCA2 C91 (UniProt P51531) | 0.419
38 | SLC2A4RG C322 | 0.164
39 | SLC6A11 C28 | 0.143
40 | SLC27A3 C364 | -0.356
41 | SMPD2 C304 (UniProt O60906) | -0.0128
